Reference: patent US11884710B2 (priority 2013, dated 2024)

Assay: general procedure: Fmoc solid-phase peptide synthesis; Fmoc-Arg(Pbf)-Wang resin; DIC/HOBT
Conditions: whole synthesis, scale of the general procedure 0.1-mmol or 0.5-mmol scale of the general procedure

Question: With “(AEEP)-(AEEP)-RRRRNQGRHFSGGALIHARFVMTAASCFQR” as the substance, how does the “final purity (method not given)” value read?
Answer: The value was 97.24%.
